Laboratory results: PubChem BioAssay AID445 (National Center for Advancing Translational Sciences (NCATS), 2006)
This is one part of the list. Shown are side measurements of this screen, not its main read-out; they come without a call. Compounds called inactive in the main read-out are mostly missing here. The note in brackets gives the kind of curve behind each potency; many fits are weak.

Test: IkB Signaling
Details: ABC-DLBCL IkBa-CBG/CBR dual luciferase ratio (green luciferase fused to IkBa over red control in OCI-Ly3 lymphoma cells), 4 h
How it was run: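 Curves were fitted separately to fusion (green), unfused (red) and ratio luminescence, then classed by r2, magnitude and activity. Cells: OCI-Ly3, 4 h compound plus doxycycline at 37C; 10 uM MG-132 defined full response.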

[1] = measured here: IkB-luc green channel
[2] = measured here: control luc red channel

In the case of `COc1cc2c(cc1O)[C@H]1Cc3ccc(OC)c(O)c3CN1CC2`, the AC50 [1] is reported as 15.8 µM [rising, partial curve] and the AC50 [2] is reported as 15.8 µM [rising, partial curve].
For `Cc1ccccc1-n1c(/C=C/c2ccccc2F)nc2ccccc2c1=O`, the AC50 [2] was 25.1 µM [falling, partial curve].
In the case of `COCCOC(=O)C1=C(N)Oc2c(c(=O)oc3ccccc23)C1c1ccncc1` (centres undefined), the AC50 [2] is reported as 0.158 µM [falling, full curve].
In the case of `O=C(COc1ccccc1[N+](=O)[O-])N1CCN(CCc2ccccn2)CC1`, the AC50 [2] is reported as 20 µM [falling, partial curve].
In the case of `ClC1=C(Cl)C2(Cl)C3C4CC(C5OC45)C3C1(Cl)C2(Cl)Cl` (centres undefined), the AC50 [1] is reported as 2.51 µM [rising, full curve] and the AC50 [2] is reported as 3.98 µM [rising, full curve].
For `O=C(Nc1ccccc1C(F)(F)F)c1cccn(Cc2ccccc2)c1=O`, the AC50 [2] was 39.8 µM [falling, single point].
In the case of `Cc1ccc(-n2c(/C=C/c3cccc4ccccc34)nc3ccccc3c2=O)cc1`, the AC50 [2] is reported as 12.6 µM [falling, partial curve].
For `O=C(Nc1cccnc1)c1c(O)c2c(n(Cc3ccccc3)c1=O)CCCC2`, the AC50 [2] was 15.8 µM [falling, partial curve].
With `CN(C(=O)Cc1ccc(Cl)c(Cl)c1)[C@H](CN1CCCC1)c1cccc(N=C=S)c1` the AC50 [2] was 39.8 µM [falling, single point].
In the case of `Nc1ccc(Cl)cc1N`, the AC50 [2] is reported as 1.58 µM [falling, full curve].
For `N#CSCSC#N`, the AC50 [1] was 1.26 µM [rising, full curve] and the AC50 [2] was 1.58 µM [rising, full curve].
In the case of `O=C(O)[C@@H]1[C@H](C(=O)O)[C@]2(Cl)C(Cl)=C(Cl)[C@@]1(Cl)C2(Cl)Cl`, the AC50 [1] is reported as 2.51 µM [rising, partial curve].
With `C[C@@]12CC[C@H](O)C[C@@H]1CC[C@H]1[C@H]2CC[C@@]2(C)[C@@H](C3=CC(=O)OC3)CC[C@]12O` the AC50 [2] was 0.631 µM [falling, full curve].
For `CCOC(=O)c1ccc(NC(=O)CSc2nc3c(cc2C#N)N2CCC3CC2)cc1`, the AC50 [2] was 7.94 µM [falling, single point].
In the case of `COc1cc2cc(c1Cl)N(C)C(=O)C[C@H](OC(=O)C(C)C)[C@]1(C)O[C@@H]1[C@@H](C)[C@H]1C[C@](O)(NC(=O)O1)[C@@H](OC)/C=C\C=C(\C)C2`, the AC50 [1] is reported as 0.0158 µM [rising, full curve] and the AC50 [2] is reported as 0.00251 µM [rising, full curve].
With `O=C1NC(=O)N(C2CCCCC2)C(=O)C1C1c2ccccc2C(=O)N1Cc1ccccc1` (centres undefined) the AC50 [2] was 7.94 µM [falling, partial curve].
With `Cc1cccc(-n2c(CC3C(=O)Nc4ccc(C)cc43)nc3ccccc3c2=O)c1` (centres undefined) the AC50 [2] was 39.8 µM [falling, single point].
With `O=C(c1ccc2c(c1)N(Cc1c(F)cccc1Cl)C(=O)c1ccccc1S2)N1CCC2(CC1)OCCO2` the AC50 [2] was 12.6 µM [falling, partial curve].
With `Cc1ccc(C)c(CN2C(=O)c3ccccc3Sc3ccc(C(=O)N4CCC5(CC4)OCCO5)cc32)c1` the AC50 [2] was 20 µM [falling, single point].
For `CN1CC[C@]2(C)c3cc(O)ccc3N(C)[C@@H]12`, the AC50 [1] was 31.6 µM [rising, partial curve] and the AC50 [2] was 31.6 µM [falling, partial curve].
In the case of `Cc1cccc(CN2C(=O)CN=C(c3ccccc3Cl)c3cc(Cl)ccc32)c1`, the AC50 [2] is reported as 15.8 µM [falling, partial curve].
With `CCOC(=O)c1c(C)n(COCCO)c2ccc(O)cc12` the AC50 [2] was 3.98 µM [falling, partial curve].
In the case of `C[C@@H]1C[C@@H]([C@H](O)CC2CC(=O)NC(=O)C2)C(=O)[C@@H](C)C1`, the AC50 [2] is reported as 0.631 µM [falling, full curve].
For `Cc1ccc(-n2c(/C=C/c3ccccc3)nc3ccccc3c2=O)cc1C`, the AC50 [2] was 10 µM [falling, partial curve].
In the case of `CC(C)(C)c1cc(C=C(C#N)C#N)cc(C(C)(C)C)c1O`, the AC50 [1] is reported as 2 µM [falling, full curve] and the AC50 [2] is reported as 0.501 µM [falling, full curve].
With `CCn1nc(-c2ccccc2)nc2c(=O)n(C)c(=O)nc1-2` the AC50 [1] was 3.16 µM [rising, partial curve] and the AC50 [2] was 12.6 µM [falling, partial curve].
For `CC(=O)c1ccc(NC(=O)c2sc3nc4c(cc3c2N)N2CCC4CC2)cc1`, the AC50 [2] was 31.6 µM [falling, single point].
For `CCc1ccc(OCCCN=C(C)c2c(O)n(C)c(=O)n(C)c2=O)cc1`, the AC50 [2] was 10 µM [falling, partial curve].
In the case of `Cc1c(C(c2ccc(O)cc2)c2c(O)c3ccccc3oc2=O)c(=O)n(-c2ccccc2)n1C` (centres undefined), the AC50 [2] is reported as 2.51 µM [falling, full curve].
For `CCOc1ccc(CN2C(=O)c3ccccc3Sc3ccc(C(=O)N4CCC5(CC4)OCCO5)cc32)cc1`, the AC50 [2] was 12.6 µM [falling, partial curve].
For `O=c1c2ccccc2nc(/C=C\c2cccc(Br)c2)n1-c1ccc(O)cc1`, the AC50 [2] was 15.8 µM [falling, partial curve].
With `Cc1cccc(-n2c(/C=C/c3cccc4ccccc34)nc3ccccc3c2=O)c1` the AC50 [2] was 39.8 µM [falling, single point].
In the case of `CCSc1nnc(NC(=O)c2cccn(Cc3ccc(Cl)cc3)c2=O)s1`, the AC50 [2] is reported as 0.00631 µM [falling, full curve, poor fit].
With `O=C(Nc1ccc2c(c1)OCO2)c1cccn(Cc2ccc(F)cc2)c1=O` the AC50 [2] was 12.6 µM [falling, single point].
With `CCOc1ccc(Br)c(C2(O)CC(C)N(C)CC2C)c1` (centres undefined) the AC50 [2] was 31.6 µM [falling, partial curve, poor fit].
For `Cn1c(=O)n(C)c2cc(CNCCc3ccccc3)ccc21`, the AC50 [2] was 25.1 µM [rising, single point].
With `CCN1CCN(C(=O)COc2ccc(S(=O)(=O)N(C)Cc3ccccc3)cc2)CC1` the AC50 [2] was 15.8 µM [falling, partial curve].
